Consider two molecules from paper PMC5404329.

By UniProt entry, the sequences of proteins in these tests, tags left out. Where a name states a change or a piece, a line headed by the entry shows the natural chain unless it says otherwise.
UniProt P09038: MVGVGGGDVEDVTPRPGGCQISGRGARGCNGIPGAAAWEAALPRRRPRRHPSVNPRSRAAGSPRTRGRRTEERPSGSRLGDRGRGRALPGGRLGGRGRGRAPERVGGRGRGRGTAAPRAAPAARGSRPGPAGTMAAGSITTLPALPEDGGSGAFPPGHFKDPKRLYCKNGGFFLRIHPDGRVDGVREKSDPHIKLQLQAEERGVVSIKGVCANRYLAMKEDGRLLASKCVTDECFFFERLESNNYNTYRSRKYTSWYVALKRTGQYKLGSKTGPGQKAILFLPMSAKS

These are yes or no findings as the source states them, for the method shown. Binding seen in cells or lysates may run through a third protein. Binding can be weak; no strength is given.

Assay [1] concerns the target T1, Glypican-2 (human (endogenous in hESC-derived neural progenitor cells)) (UniProt Q8N158).
T1 sequence: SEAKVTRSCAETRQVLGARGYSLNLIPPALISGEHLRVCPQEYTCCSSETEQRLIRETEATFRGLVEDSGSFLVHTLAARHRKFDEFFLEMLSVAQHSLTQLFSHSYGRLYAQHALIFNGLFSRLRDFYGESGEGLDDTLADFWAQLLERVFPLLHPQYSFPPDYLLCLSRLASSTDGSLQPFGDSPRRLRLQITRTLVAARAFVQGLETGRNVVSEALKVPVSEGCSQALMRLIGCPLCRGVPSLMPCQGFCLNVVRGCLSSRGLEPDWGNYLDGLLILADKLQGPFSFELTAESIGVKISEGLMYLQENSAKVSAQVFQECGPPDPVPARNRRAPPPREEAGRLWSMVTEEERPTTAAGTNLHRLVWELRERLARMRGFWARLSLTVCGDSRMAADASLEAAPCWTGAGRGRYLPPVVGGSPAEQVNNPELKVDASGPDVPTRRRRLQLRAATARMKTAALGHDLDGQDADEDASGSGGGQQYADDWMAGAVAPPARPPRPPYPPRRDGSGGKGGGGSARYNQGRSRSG
Put plainly: co-IP; immunoprecipitation with the Gpc2-specific antibody (clone 2/43) from NPC lysates pre-incubated with 0, 1, 2.5, 5 and 10 ug/ml free Gpc2 antibody; FGF2 detected by blot in the eluted fractions.

Assay [2] deals with Fibroblast Growth Factor 2 (human (endogenous in hESC-derived neural progenitor cells)) (UniProt P09038). Put plainly: co-IP; reverse immunoprecipitation with an FGF2-specific antibody (Abcam ab126861) from NPC lysate; Gpc2 detected by blot in the bound fraction.

“Fibroblast Growth Factor 2 (from UniProt P09038) (ligand)”: the binding result in assay [1] is “binds”.

B1: Glypican-2 (protein, UniProt Q8N158 24-554)
chain: T1 sequence
In the case of B1, in assay [2], the binding result is on record as “binds”.
